Measurements published in the supplement of paper PMC10849652.
The other results are listed elsewhere or left out.

Chains of the proteins cited; added tags and fusions are not shown. Lines headed by an entry give the natural chain unless they say otherwise; changes in a name come on top.
UniProt O75347: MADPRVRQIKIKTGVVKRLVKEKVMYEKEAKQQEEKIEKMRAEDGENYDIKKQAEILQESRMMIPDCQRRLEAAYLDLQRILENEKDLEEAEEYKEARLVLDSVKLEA
UniProt P02787, whole entry, looked up: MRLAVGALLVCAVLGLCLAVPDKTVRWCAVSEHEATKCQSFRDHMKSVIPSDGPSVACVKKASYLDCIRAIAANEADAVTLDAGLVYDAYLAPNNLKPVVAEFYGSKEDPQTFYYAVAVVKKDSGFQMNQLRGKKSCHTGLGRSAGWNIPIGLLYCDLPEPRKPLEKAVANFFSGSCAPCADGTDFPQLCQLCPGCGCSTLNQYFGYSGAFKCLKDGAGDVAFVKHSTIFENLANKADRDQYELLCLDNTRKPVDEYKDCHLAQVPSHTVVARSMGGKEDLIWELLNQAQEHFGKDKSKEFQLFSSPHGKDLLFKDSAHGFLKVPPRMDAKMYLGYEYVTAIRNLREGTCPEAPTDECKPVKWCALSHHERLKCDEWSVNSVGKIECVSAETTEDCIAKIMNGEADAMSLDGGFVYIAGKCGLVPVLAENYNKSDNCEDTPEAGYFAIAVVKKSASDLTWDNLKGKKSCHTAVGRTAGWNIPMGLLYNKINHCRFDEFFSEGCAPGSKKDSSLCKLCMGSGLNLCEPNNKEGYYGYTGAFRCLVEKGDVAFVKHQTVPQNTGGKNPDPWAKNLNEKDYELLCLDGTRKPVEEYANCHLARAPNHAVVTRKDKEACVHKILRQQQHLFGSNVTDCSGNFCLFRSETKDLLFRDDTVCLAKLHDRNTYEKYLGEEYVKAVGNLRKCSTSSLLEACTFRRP
UniProt Q03167: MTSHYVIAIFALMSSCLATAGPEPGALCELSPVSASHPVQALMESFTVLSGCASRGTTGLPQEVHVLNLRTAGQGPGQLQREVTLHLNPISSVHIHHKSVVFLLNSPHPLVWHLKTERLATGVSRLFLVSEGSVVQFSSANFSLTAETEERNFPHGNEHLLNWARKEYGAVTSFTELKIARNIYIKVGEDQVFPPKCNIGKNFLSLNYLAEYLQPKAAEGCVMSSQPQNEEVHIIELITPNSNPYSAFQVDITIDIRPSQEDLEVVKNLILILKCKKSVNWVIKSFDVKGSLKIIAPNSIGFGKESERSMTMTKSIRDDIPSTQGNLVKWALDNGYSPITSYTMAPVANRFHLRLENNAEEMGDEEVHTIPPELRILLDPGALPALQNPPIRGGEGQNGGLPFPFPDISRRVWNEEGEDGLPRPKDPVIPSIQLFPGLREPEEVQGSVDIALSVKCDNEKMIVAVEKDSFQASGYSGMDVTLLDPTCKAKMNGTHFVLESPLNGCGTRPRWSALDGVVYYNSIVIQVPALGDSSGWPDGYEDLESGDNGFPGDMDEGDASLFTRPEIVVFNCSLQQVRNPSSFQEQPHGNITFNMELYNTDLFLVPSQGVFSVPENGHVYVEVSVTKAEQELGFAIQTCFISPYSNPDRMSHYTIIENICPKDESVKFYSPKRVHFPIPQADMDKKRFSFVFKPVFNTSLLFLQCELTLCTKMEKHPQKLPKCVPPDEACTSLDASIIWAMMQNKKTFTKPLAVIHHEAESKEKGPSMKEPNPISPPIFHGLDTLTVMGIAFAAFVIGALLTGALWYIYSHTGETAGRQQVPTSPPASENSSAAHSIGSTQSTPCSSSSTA
UniProt O95551: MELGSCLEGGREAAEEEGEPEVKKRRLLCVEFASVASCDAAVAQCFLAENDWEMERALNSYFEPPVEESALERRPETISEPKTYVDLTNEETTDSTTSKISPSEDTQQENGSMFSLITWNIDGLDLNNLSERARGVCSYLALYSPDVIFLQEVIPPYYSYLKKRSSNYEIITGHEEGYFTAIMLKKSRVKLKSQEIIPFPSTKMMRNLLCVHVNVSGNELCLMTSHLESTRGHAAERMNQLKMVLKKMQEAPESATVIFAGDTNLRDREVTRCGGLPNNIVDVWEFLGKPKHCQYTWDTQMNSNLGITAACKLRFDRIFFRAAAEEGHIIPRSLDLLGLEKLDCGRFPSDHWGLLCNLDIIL
UniProt Q92734, whole entry, looked up: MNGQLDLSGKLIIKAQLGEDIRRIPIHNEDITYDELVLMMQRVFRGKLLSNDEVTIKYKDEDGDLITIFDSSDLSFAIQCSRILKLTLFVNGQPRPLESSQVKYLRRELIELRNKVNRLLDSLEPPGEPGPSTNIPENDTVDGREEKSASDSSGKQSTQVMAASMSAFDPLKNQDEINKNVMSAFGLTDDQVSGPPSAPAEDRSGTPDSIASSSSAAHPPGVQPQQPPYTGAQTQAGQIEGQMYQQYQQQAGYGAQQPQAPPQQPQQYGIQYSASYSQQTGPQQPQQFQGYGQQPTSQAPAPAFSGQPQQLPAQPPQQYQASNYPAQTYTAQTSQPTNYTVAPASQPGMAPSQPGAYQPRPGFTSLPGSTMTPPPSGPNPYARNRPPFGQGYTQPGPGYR
UniProt O60343: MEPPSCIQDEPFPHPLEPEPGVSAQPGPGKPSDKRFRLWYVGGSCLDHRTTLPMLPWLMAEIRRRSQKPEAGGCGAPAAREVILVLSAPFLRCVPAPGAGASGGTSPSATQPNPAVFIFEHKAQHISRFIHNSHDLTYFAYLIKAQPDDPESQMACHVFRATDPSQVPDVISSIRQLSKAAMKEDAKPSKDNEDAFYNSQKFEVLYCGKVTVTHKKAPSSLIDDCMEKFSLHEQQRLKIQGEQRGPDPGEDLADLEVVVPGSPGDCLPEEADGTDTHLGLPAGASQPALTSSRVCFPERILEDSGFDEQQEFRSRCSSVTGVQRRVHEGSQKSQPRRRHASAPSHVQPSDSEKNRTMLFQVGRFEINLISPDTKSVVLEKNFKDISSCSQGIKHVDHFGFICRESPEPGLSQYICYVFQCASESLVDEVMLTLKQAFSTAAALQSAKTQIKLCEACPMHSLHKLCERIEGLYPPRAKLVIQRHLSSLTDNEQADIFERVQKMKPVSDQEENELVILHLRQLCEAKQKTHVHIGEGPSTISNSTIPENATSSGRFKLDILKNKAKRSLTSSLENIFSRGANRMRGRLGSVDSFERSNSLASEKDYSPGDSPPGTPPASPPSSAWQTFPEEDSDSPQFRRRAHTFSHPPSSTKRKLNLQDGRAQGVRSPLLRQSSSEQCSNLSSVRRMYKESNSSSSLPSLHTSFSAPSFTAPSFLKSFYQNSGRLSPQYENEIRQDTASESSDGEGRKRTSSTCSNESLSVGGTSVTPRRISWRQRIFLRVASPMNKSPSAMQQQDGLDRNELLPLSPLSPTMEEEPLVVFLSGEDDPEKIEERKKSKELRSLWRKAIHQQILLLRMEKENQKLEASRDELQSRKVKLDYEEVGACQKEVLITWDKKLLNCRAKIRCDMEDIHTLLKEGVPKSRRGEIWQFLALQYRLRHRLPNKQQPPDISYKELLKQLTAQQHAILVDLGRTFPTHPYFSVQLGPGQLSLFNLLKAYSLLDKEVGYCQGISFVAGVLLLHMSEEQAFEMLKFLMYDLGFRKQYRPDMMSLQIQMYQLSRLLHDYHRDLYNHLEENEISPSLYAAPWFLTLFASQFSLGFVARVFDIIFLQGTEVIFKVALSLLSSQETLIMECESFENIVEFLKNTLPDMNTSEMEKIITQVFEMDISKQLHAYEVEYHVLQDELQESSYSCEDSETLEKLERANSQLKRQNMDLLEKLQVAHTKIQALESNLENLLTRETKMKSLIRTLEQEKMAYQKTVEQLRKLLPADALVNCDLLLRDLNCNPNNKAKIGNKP
UniProt Q8WUY1: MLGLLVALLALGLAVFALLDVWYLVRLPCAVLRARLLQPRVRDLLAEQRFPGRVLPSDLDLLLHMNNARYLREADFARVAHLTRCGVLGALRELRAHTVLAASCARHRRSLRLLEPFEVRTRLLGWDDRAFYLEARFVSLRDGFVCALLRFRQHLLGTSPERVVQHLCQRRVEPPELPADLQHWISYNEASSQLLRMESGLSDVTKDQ
UniProt Q9Y584: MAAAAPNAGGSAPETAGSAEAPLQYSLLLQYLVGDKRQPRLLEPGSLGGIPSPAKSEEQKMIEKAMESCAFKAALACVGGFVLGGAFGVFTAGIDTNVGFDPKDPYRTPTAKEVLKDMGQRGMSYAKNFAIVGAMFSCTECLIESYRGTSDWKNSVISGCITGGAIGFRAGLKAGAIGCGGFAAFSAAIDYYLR
UniProt Q8NFU7: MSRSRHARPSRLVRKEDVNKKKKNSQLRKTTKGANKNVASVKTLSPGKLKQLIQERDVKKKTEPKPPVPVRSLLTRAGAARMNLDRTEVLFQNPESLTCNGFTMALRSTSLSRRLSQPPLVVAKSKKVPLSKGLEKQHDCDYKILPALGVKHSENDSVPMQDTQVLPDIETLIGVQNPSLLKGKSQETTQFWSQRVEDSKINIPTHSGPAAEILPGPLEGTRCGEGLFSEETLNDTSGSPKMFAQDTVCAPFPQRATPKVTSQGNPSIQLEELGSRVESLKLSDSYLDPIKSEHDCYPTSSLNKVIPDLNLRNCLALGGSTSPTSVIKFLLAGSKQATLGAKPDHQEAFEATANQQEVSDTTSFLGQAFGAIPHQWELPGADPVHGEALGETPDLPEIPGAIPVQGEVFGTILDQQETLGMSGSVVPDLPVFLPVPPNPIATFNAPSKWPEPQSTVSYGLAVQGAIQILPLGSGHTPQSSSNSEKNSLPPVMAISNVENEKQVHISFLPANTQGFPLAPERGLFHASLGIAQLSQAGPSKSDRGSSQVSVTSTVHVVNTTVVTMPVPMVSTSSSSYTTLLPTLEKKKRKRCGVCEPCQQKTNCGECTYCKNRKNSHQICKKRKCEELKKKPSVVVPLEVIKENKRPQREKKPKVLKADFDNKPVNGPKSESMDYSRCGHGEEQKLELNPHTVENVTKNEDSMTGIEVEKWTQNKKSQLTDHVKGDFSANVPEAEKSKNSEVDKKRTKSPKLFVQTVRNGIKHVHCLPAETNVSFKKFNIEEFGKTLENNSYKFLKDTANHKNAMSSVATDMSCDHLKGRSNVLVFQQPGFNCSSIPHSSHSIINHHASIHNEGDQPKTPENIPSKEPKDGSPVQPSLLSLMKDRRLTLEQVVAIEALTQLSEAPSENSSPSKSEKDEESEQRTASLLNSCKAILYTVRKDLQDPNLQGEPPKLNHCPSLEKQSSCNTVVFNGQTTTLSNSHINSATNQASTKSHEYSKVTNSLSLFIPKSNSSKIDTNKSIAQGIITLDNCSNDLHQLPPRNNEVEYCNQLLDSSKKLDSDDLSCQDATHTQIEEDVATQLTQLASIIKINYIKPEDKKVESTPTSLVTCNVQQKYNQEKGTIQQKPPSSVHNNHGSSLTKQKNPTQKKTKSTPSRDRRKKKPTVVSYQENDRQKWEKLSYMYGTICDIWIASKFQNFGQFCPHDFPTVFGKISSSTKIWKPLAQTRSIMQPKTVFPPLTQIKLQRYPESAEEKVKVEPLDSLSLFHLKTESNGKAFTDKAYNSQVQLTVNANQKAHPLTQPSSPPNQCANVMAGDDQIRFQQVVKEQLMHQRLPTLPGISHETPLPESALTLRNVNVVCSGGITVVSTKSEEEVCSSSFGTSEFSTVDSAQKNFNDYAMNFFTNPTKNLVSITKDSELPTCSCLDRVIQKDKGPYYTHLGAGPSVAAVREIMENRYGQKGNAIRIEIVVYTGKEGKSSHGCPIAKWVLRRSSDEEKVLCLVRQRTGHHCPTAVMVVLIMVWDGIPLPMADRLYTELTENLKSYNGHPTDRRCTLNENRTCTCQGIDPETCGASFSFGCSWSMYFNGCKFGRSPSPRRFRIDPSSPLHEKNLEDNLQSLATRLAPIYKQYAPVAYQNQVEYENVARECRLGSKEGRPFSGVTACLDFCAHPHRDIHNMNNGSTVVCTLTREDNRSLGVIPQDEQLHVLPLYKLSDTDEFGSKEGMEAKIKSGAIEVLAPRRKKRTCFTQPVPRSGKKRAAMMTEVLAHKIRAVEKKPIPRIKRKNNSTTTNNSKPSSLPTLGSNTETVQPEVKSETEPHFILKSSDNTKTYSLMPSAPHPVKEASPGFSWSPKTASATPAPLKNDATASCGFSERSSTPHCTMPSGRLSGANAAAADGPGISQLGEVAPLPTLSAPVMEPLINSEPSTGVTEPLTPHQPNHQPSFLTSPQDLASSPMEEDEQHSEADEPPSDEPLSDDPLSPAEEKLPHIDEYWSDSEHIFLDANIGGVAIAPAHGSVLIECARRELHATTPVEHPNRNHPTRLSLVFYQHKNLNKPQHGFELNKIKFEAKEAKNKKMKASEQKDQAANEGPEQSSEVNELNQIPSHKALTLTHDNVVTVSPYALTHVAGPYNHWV

What was measured:
Assay in all cases: log2 fold change, soluble protein after heating vs DMSO (PISA); higher = thermal stabilisation; K562 cells, 10 uM, 30 min; active = over 0.2 and 3.5 SD of the protein, either way, in both replicates (recomputed)
[1] = compound: CS(=O)(=O)c1ccc(-c2cnc(N)c(C(=O)Nc3ccccc3)n2)cc1
Summary of the method: (§1)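 Values are thermal stability changes relative to control samples and are taken from duplicates. They are stated as log2 fold changes. Before quantification by TMTpro 16plex LC-MS/MS with equalised channel sums, K562 cells at 2×10^6 cells/mL were treated with 10 μM compound for 30 min, heated in aliquots for 3 min across 48°C-58°C, pooled, extracted in PBS with 0.5% NP-40 at 4°C, and centrifuged at 21,000xg for 90 min to give the soluble supernatant.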

crizotinib = compound: C[C@@H](Oc1cc(-c2cnn(C3CCNCC3)c2)cnc1N)c1c(Cl)ccc(F)c1Cl [crizotinib]
Summary of the method: as §1

[2] = compound: C[C@@H]1COCCN1C2=NC(=NC(=C2)C3(CC3)S(=O)(=O)C)C4=C5C=CNC5=CC=C4
Summary of the method: as §1

[3] = compound: C[C@H](C1=CC=C(C=C1)C(=O)NC2=C3C=CNC3=NC=C2)N
Summary of the method: as §1

duvelisib = compound: C[C@H](Nc1ncnc2nc[nH]c12)c1cc2cccc(Cl)c2c(=O)n1-c1ccccc1 [duvelisib]
Summary of the method: as §1

gandotinib = compound: Cc1cc(Nc2cc(CN3CCOCC3)c3nc(C)c(Cc4ccc(Cl)cc4F)n3n2)n[nH]1 [gandotinib]
Summary of the method: as §1

tozasertib = compound: Cc1cc(Nc2cc(N3CCN(C)CC3)nc(Sc3ccc(NC(=O)C4CC4)cc3)n2)n[nH]1 [tozasertib]
Summary of the method: as §1

[4] = compound: Cc1cc(SCc2sc(-c3ccc(C(F)(F)F)cc3)nc2C)ccc1OCC(=O)O
Summary of the method: as §1

doramapimod = compound: Cc1ccc(-n2nc(C(C)(C)C)cc2NC(=O)Nc2ccc(OCCN3CCOCC3)c3ccccc23)cc1 [doramapimod]
Summary of the method: as §1

ispinesib = compound: Cc1ccc(C(=O)N(CCCN)[C@@H](c2nc3cc(Cl)ccc3c(=O)n2Cc2ccccc2)C(C)C)cc1 [ispinesib]
Summary of the method: as §1

bafetinib = compound: Cc1ccc(NC(=O)c2ccc(CN3CC[C@H](N(C)C)C3)c(C(F)(F)F)c2)cc1Nc1nccc(-c2cncnc2)n1 [bafetinib]
Summary of the method: as §1

[5] = compound: Cc1cccc(CC(=O)N2CCc3c2ccc(-c2cn(C)c4ncnc(N)c24)c3F)n1
Summary of the method: as §1

nilotinib = compound: Cc1cn(-c2cc(NC(=O)c3ccc(C)c(Nc4nccc(-c5cccnc5)n4)c3)cc(C(F)(F)F)c2)cn1 [nilotinib]
Summary of the method: as §1

[6] = compound: Cc1nc(Nc2n[nH]c3c2CN(C(=O)N[C@H](CN(C)C)c2ccccc2)C3(C)C)c2sccc2n1
Summary of the method: as §1

dasatinib = compound: Cc1nc(Nc2ncc(C(=O)Nc3c(C)cccc3Cl)s2)cc(N2CCN(CCO)CC2)n1 [dasatinib]
Summary of the method: as §1

[7] = compound: Cc1ncc(-c2ccnc(Nc3ccc(S(C)(=O)=O)cc3)n2)n1C(C)C
Summary of the method: as §1

[8] = compound: Cn1cc(-c2ccc3c(c2)CCN3C(=O)Cc2cccc(C(F)(F)F)c2)c2c(N)ncnc21
Summary of the method: as §1

[9] = compound: Cn1cc(-c2ccc3nnc(C(F)(F)c4ccc5ncccc5c4)n3n2)cn1
Summary of the method: as §1

tipifarnib = compound: Cn1cncc1[C@@](N)(c1ccc(Cl)cc1)c1ccc2c(c1)c(-c1cccc(Cl)c1)cc(=O)n2C [tipifarnib]
Summary of the method: as §1

mubritinib = compound: FC(F)(F)c1ccc(/C=C/c2nc(COc3ccc(CCCCn4ccnn4)cc3)co2)cc1 [mubritinib]
Summary of the method: as §1

Measured: log2 fold change

TCF12 isoform 3 (UniProt Q99081)
inactive: [1] -0.015 | crizotinib -0.013 | [2] -0.029 | [3] -0.223 | duvelisib -0.004 | gandotinib -0.203 | tozasertib 0.063 | [4] 0.097 | doramapimod 0.02 | ispinesib 0.043 | bafetinib -0.103 | [5] 0.026 | nilotinib -0.026 | [6] 0.133 | dasatinib -0.143 | [7] -0.007 | [8] -0.058 | [9] -0.018 | tipifarnib -0.068 | mubritinib -0.001

TBCA (UniProt O75347)
inactive: [1] -0.002 | crizotinib 0.007 | [2] 0.018 | [3] -0.064 | duvelisib 0.003 | gandotinib 0.013 | tozasertib -0.047 | [4] -0.041 | doramapimod -0.035 | ispinesib -0.023 | bafetinib -0.038 | [5] -0.046 | nilotinib -0.015 | [6] -0.018 | dasatinib 0.047 | [7] -0.032 | [8] -0.009 | [9] -0.003 | tipifarnib 0.025 | mubritinib 0.028

TF (UniProt P02787)
inactive: [1] -0.213 | crizotinib 0.176 | [2] 0.014 | [3] 0.367 | duvelisib -0.362 | gandotinib 0.01 | tozasertib -0.03 | [4] -0.258 | doramapimod 0.299 | ispinesib -0.043 | bafetinib 0.016 | [5] -0.095 | nilotinib 0.042 | [6] -0.029 | dasatinib 0.131 | [7] 0.486 | [8] 0.198 | [9] -0.05 | tipifarnib -0.066 | mubritinib -0.393

TGFBR3 (UniProt Q03167)
inactive: [1] 0.049 | crizotinib -0.022 | [2] -0.039 | [3] -0.057 | duvelisib 0.081 | gandotinib -0.063 | tozasertib 0.056 | [4] -0.02 | doramapimod 0.048 | ispinesib 0.094 | bafetinib 0.01 | [5] 0.001 | nilotinib 0.026 | [6] -0.075 | dasatinib 0.072 | [7] 0.125 | [8] 0.077 | [9] -0.089 | tipifarnib -0.006 | mubritinib -0.046

TBL1X (UniProt O60907)
inactive: [1] -0.026 | crizotinib 0.063 | [2] 0.139 | [3] -0.053 | duvelisib 0.042 | gandotinib 0.003 | tozasertib 0.018 | [4] 0.054 | doramapimod -0.042 | ispinesib 0.035 | bafetinib -0.052 | [5] 0.061 | nilotinib -0.026 | [6] -0.001 | dasatinib -0.042 | [7] -0.017 | [8] 0.018 | [9] -0.039 | tipifarnib 0.02 | mubritinib 0.056

TDP2 isoform 2 (UniProt O95551)
inactive: [1] 0.001 | crizotinib -0.077 | [2] -0.078 | [3] 0.003 | duvelisib 0.021 | gandotinib -0.03 | tozasertib -0.097 | [4] 0.072 | doramapimod 0.018 | ispinesib -0.118 | bafetinib -0.006 | [5] 0.035 | nilotinib -0.039 | [6] 0.003 | dasatinib -0.092 | [7] -0.087 | [8] 0.075 | [9] -0.037 | tipifarnib -0.095 | mubritinib 0.098

THOC1 (UniProt Q96FV9)
inactive: [1] -0.04 | crizotinib -0.083 | [2] -0.087 | [3] 0.074 | duvelisib -0.032 | gandotinib 0.245 | tozasertib -0.004 | [4] 0.078 | doramapimod 0.028 | ispinesib -0.059 | bafetinib -0.097 | [5] -0.143 | nilotinib -0.001 | [6] -0.055 | dasatinib -0.049 | [7] 0.075 | [8] -0.058 | [9] 0.059 | tipifarnib 0.044 | mubritinib 0

TFG (UniProt Q92734)
inactive: [1] -0.012 | crizotinib 0.049 | [2] -0.023 | [3] -0.094 | duvelisib -0.005 | gandotinib 0.051 | tozasertib -0.005 | [4] -0.02 | doramapimod -0.035 | ispinesib -0.007 | bafetinib -0.059 | [5] -0.021 | nilotinib 0.011 | [6] 0.008 | dasatinib 0.045 | [7] 0.009 | [8] -0.039 | [9] -0.046 | tipifarnib 0.006 | mubritinib 0.033

Pulled one by one from above, 2 records:
TBCA (UniProt O75347)
inactive: [1] -0.002 | crizotinib 0.007 | [2] 0.018 | [3] -0.064 | duvelisib 0.003 | gandotinib 0.013 | tozasertib -0.047 | [4] -0.041 | doramapimod -0.035 | ispinesib -0.023 | bafetinib -0.038 | [5] -0.046 | nilotinib -0.015 | [6] -0.018 | dasatinib 0.047 | [7] -0.032 | [8] -0.009 | [9] -0.003 | tipifarnib 0.025 | mubritinib 0.028

TF (UniProt P02787)
inactive: [1] -0.213 | crizotinib 0.176 | [2] 0.014 | [3] 0.367 | duvelisib -0.362 | gandotinib 0.01 | tozasertib -0.03 | [4] -0.258 | doramapimod 0.299 | ispinesib -0.043 | bafetinib 0.016 | [5] -0.095 | nilotinib 0.042 | [6] -0.029 | dasatinib 0.131 | [7] 0.486 | [8] 0.198 | [9] -0.05 | tipifarnib -0.066 | mubritinib -0.393

The list goes on.

TBC1D4 (UniProt O60343)
inactive: [1] 0.034 | crizotinib -0.051 | [2] 0.005 | [3] -0.002 | duvelisib -0.05 | gandotinib 0.035 | tozasertib 0.039 | [4] 0.004 | doramapimod -0.011 | ispinesib -0.009 | bafetinib -0.103 | [5] -0.005 | nilotinib -0.05 | [6] -0.007 | dasatinib -0.081 | [7] 0.006 | [8] -0.002 | [9] -0.018 | tipifarnib -0.061 | mubritinib -0.004

TDRKH (UniProt Q9Y2W6)
inactive: [1] 0.029 | crizotinib -0.02 | [2] 0.018 | [3] 0.165 | duvelisib 0.103 | gandotinib 0.033 | tozasertib -0.057 | [4] 0.002 | doramapimod 0.002 | ispinesib 0.004 | bafetinib 0.01 | [5] 0.023 | nilotinib -0.042 | [6] -0.071 | dasatinib -0.003 | [7] -0.076 | [8] -0.042 | [9] -0.054 | tipifarnib 0.038 | mubritinib 0.061

THEM6 (UniProt Q8WUY1)
inactive: [1] -0.008 | crizotinib -0.186 | [2] 0.129 | [3] -0.125 | duvelisib 0.064 | gandotinib 0.012 | tozasertib 0.004 | [4] 0.019 | doramapimod 0.013 | ispinesib 0.05 | bafetinib -0.015 | [5] 0.005 | nilotinib 0.07 | [6] -0.015 | dasatinib 0.05 | [7] -0.065 | [8] 0.078 | [9] 0.043 | tipifarnib 0.09 | mubritinib 0.05

TIMM22 (UniProt Q9Y584)
inactive: [1] 0.127 | crizotinib -0.067 | [2] 0.067 | [3] -0.325 | duvelisib -0.098 | gandotinib -0.015 | tozasertib 0.028 | [4] 0.062 | doramapimod -0.091 | ispinesib 0.161 | bafetinib -0.055 | [5] 0.08 | nilotinib -0.018 | [6] 0.042 | dasatinib -0.037 | [7] -0.022 | [8] 0.041 | [9] -0.056 | tipifarnib -0.035 | mubritinib 0.001

TBCE (UniProt Q15813)
inactive: [1] -0.031 | crizotinib -0.153 | [2] -0.047 | [3] 0.241 | duvelisib -0.041 | gandotinib 0.073 | tozasertib 0.064 | [4] 0.122 | doramapimod 0.096 | ispinesib -0.178 | bafetinib 0.089 | [5] 0.07 | nilotinib -0.112 | [6] -0.182 | dasatinib -0.176 | [7] 0.016 | [8] 0.011 | [9] -0.048 | tipifarnib -0.02 | mubritinib -0.019

TET1 (UniProt Q8NFU7)
inactive: [1] 0.057 | crizotinib 0.059 | [2] 0.174 | [3] 0.011 | duvelisib 0.18 | gandotinib 0.328 | tozasertib -0.153 | [4] -0.374 | doramapimod 0.076 | ispinesib 0.048 | bafetinib 0 | [5] 0.084 | nilotinib -0.129 | [6] 0.05 | dasatinib 0.163 | [7] -0.132 | [8] 0.072 | [9] 0.083 | tipifarnib -0.088 | mubritinib 0.131

THUMPD2 (UniProt Q9BTF0)
inactive: [1] 0.018 | crizotinib 0.059 | [2] -0.003 | [3] 0.071 | duvelisib 0.093 | gandotinib 0.06 | tozasertib -0.03 | [4] -0.037 | doramapimod -0.026 | ispinesib 0.091 | bafetinib -0.015 | [5] -0.111 | nilotinib 0.006 | [6] 0.03 | dasatinib 0.028 | [7] 0.002 | [8] -0.021 | [9] -0.001 | tipifarnib -0.004 | mubritinib -0.031

TCEA1 (UniProt P23193)
inactive: [1] -0.019 | crizotinib 0.029 | [2] 0.002 | [3] -0.044 | duvelisib 0.054 | gandotinib -0.051 | tozasertib -0.021 | [4] -0.018 | doramapimod -0.093 | ispinesib 0.005 | bafetinib -0.025 | [5] 0.002 | nilotinib -0.009 | [6] -0.082 | dasatinib -0.004 | [7] -0.007 | [8] 0.024 | [9] 0.01 | tipifarnib 0.049 | mubritinib 0.038
